Results reported in the supplement of paper PMC10735217.
Counter-ions that a name gives are not always drawn. This is one part of the list. Repeats in this data set agree poorly, so a single value says little.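 The human kidney-derived cells carry a stably integrated construct of eight TEAD-binding elements driving luciferase, read by luminescence in a drug-repurposing library screen. A compound counts as a hit when its signal is more than five robust Z scores above the plate mean.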

System: HEK293A TEAD-LUC reporter
Experiment: TEAD-luciferase reporter activity (YAP activation), robust Z score vs plate; higher = stronger YAP/TEAD activation
Conditions: 24 h

Row | SMILES | TEAD-luciferase reporter activity (compound concentration: 200 nM) | TEAD-luciferase reporter activity (compound concentration: 2 uM) | TEAD-luciferase reporter activity (compound concentration: 10 uM)
1 | CN(C(=O)CN(CCO)CCO)c1ccc(Cl)cc1C(=O)c1ccccc1Cl | inactive: -0.913 | inactive: -0.873 | inactive: 1.34
2 | CC(C)(C)NCC(O)c1ccc(O)c(O)c1 (centres undefined) [Colterol] | inactive: -0.247 | inactive: 0.0213 | inactive: -0.193
3 | O=C(NCc1cccnc1)c1cnc(Nc2cccc(Cl)c2)nc1C(F)(F)F | inactive: 0.0351 | inactive: -0.224 | inactive: 0.294
4 | N#Cc1cncc(N2CC3CCC(C2)N3CC(F)(F)F)c1 | inactive: -0.937 | – | inactive: 1.87
5 | CN(C(=O)CNC1CC1)c1ccc(Cl)cc1C(=O)c1ccccc1Cl [ciprazafone] | inactive: -0.608 | inactive: -0.633 | inactive: -1.68
6 | NCCc1ccccc1Sc1c[nH]c2cc(F)ccc12 | inactive: -0.598 | inactive: -0.856 | inactive: -0.532
7 | Oc1ccc(Cl)cc1Cc1ccccc1 | inactive: -1.14 | inactive: -2.22 | inactive: 0.0333
8 | C[N+]12CCC(CC1)C(OC(=O)C(O)(c1ccccc1)c1ccccc1)C2 (centres undefined) [Clidinium bromide] | inactive: -1.29 | inactive: 1.11 | inactive: -1.01
9 | COC(CN1CCN(CC(O)C(OC)c2ccccc2)CC1)c1ccccc1 (centres undefined) | inactive: -0.616 | inactive: -0.943 | inactive: 1.34
10 | C=CCC1CN(C)CCC1(OC(=O)CC)c1ccccc1 (centres undefined) | inactive: -0.974 | inactive: -1.96 | inactive: 0.283
11 | c1ccc(C2CCNCC2)cc1 | inactive: -1.72 | inactive: 1.79 | inactive: -1.35
12 | C[C@]12CCC(=O)C(=O)C1CC[C@@H]1[C@@H]2CC[C@]2(C)C(=O)CC[C@@H]12 (some centres undefined) [formestane] | inactive: 0.588 | inactive: -0.483 | inactive: 1.44
13 | C#CCN(C)[C@@H](C)Cc1ccc(F)cc1 [parafluoro-selegiline] | inactive: -0.353 | inactive: -0.329 | inactive: 2.05
14 | CN1C(=O)[C@@H](NC(=O)c2cc3ccccc3[nH]2)N=C(c2ccccc2)c2ccccc21 [Devazepide] | inactive: 0.134 | inactive: -1.01 | inactive: -1.28
15 | CCCC(C)(C)c1ccc2c(c1)OC(C)(C)[C@@H]1CC=C(C)C[C@@H]21 | inactive: -1.28 | inactive: -1.15 | inactive: 2.19
16 | C=CCC1(C2C=CCC2)C(=O)NC(=O)NC1=O (centres undefined) | inactive: -1.15 | inactive: 0.953 | inactive: -0.415
17 | S=C=NCCc1ccccc1 [Phenethyl isothiocyanate] | inactive: 1.45 | inactive: -0.514 | inactive: -1.89
18 | CC(C)[C@]12O[C@H]1[C@@H]1O[C@]13[C@]1(O[C@H]1C[C@H]1C4=C(CC[C@@]13C)C(=O)OC4)[C@@H]2OC(=O)CCC(=O)O [Omtriptolide] | inactive: -0.635 | inactive: -2.4 | inactive: -0.83
19 | C[C@@H](Cc1ccsc1)NC(=O)NC[C@H](Cc1ccc(O)cc1)N(C)C | inactive: -0.215 | inactive: -1.71 | inactive: -0.319
20 | CC(C)C[C@@H]1NC(=O)[C@H](CCCCN)NC(=O)[C@H](Cc2ccc(O)cc2)NC(=O)CNC(=O)[C@@H]2CSSC[C@H](NC1=O)C(=O)N[C@@H](Cc1cnc[nH]1)C(=O)N1C[C@H](O)C[C@H]1C(=O)N[C@H](C(=O)O)CSSC[C@H](NC(=O)[C@@H](NC(=O)CNC(=O)[C@@H]1CCC(=O)N1)C(C)C)C(=O)N2 | inactive: 0.0816 | inactive: 0.472 | active: 5.78

Row | SMILES | TEAD-luciferase reporter activity (compound concentration: 200 nM) | TEAD-luciferase reporter activity (compound concentration: 2 uM) | TEAD-luciferase reporter activity (compound concentration: 10 uM)
21 | CCN(CC)CCOC(=O)C(C)(c1ccccc1)c1ccccc1 | inactive: -1.09 | inactive: -0.809 | inactive: 4.8
22 | C=CCC1(CC(C)C)C(=O)NC(=S)NC1=O | inactive: -1.61 | inactive: 0.186 | inactive: 0.48
23 | NCCCNCCSP(=O)(O)O [amifostine] | inactive: 0.237 | – | inactive: -0.276
24 | CS(=O)CC[C@@H](NC(=O)[C@@H](N)Cc1ccc(O)cc1)C(=O)NCC(=O)N[C@@H](Cc1ccc([N+](=O)[O-])cc1)C(=O)N1CCC[C@H]1C(N)=O (some centres undefined) [nifalatide] | inactive: 0.652 | inactive: -0.8 | inactive: 0.0169
25 | Cc1ncc(OC[C@@]2(c3cccc(F)c3)C[C@H]2C(=O)Nc2ccc(F)cn2)c(C)n1 [Lemborexant] | inactive: -1.8 | inactive: -1.25 | inactive: 3.18
26 | CN(C(=O)CNC(=O)[C@@H](N)CCCCN)c1ccc(Cl)cc1C(=O)c1ccccc1 | inactive: -1.25 | inactive: 1.14 | inactive: 1.62
27 | CCC1(CC)C(=O)CCNC1=O | inactive: -0.93 | inactive: -0.915 | inactive: -0.599
28 | NCCS[As](SCCN)c1ccc(Nc2nc(N)nc(N)n2)cc1 | inactive: -0.435 | inactive: 1.39 | inactive: 1.18
29 | CCCCNC(=O)n1c(NC(=O)OC)nc2ccccc21 | inactive: -0.0459 | inactive: -0.909 | inactive: -0.354
30 | CCCN(CCC)C(=O)Cc1c(-c2ccc(Cl)cc2)nc2ccc(Cl)cn12 [alpidem] | inactive: 0.852 | inactive: -2.17 | inactive: 2.87
31 | CC1COC(O)(c2cc(F)cc(F)c2)C(C)N1 (centres undefined) | inactive: -1.45 | inactive: -1.83 | inactive: 0.66
32 | Oc1ccc([C@H]2CC[C@]3(CC2)OOC2(O3)C3CC4CC(C3)CC2C4)cc1 (some centres undefined) | inactive: 2.69 | – | inactive: -1.24
33 | CCCN[C@@H]1Cc2cccc3[nH]c(=O)n(c23)C1 | inactive: 0.141 | inactive: -0.323 | inactive: 0.267
34 | Cc1cc(C)c(CC2=NCCN2)c(C)c1 | inactive: -1.2 | inactive: -0.292 | inactive: -1.71
35 | O=C(O)C1CCN1C12CC3CC(CC(C3)C1)C2 (centres undefined) | inactive: 2.48 | inactive: -1.32 | inactive: 4.12
36 | COc1ccc2c3c1O[C@H]1[C@@H](O)CC[C@H]4[C@@H](C2)N(C)CC[C@@]341 [Dihydrocodeine Bitartrate] | inactive: 1.42 | – | active: 9.99
37 | CC(=O)NC1CCC(O[N+](=O)[O-])CC1 (centres undefined) | inactive: 1.05 | inactive: 0.658 | inactive: -0.844
38 | CC(C)CN1C(=O)C(NC(=O)Nc2cccc(-c3nnn[nH]3)c2)N=C(c2ccccc2)c2ccccc21 (centres undefined) | inactive: -0.721 | inactive: -1.57 | active: 8.17
39 | CC(=O)O[C@H]1CC[C@@]2(C)C(=CC[C@H]3[C@@H]4CC[C@H](O)[C@@]4(C)CC[C@@H]32)C1 | inactive: -0.936 | inactive: -1.43 | inactive: 2.81
40 | O=C(C1CCCN1C(=O)c1ccc(C(F)(F)F)cc1)N1CCC(N2Cc3ccccc3C2=O)CC1 (centres undefined) | inactive: -2.82 | – | inactive: -1.13

Exported as a markdown table: entries from further up

| Row | SMILES | TEAD-luciferase reporter activity (compound concentration: 200 nM) | TEAD-luciferase reporter activity (compound concentration: 2 uM) | TEAD-luciferase reporter activity (compound concentration: 10 uM) |
| --- | --- | --- | --- | --- |
| 22 | C=CCC1(CC(C)C)C(=O)NC(=S)NC1=O | inactive: -1.61 | inactive: 0.186 | inactive: 0.48 |
| 23 | NCCCNCCSP(=O)(O)O [amifostine] | inactive: 0.237 | – | inactive: -0.276 |
| 24 | CS(=O)CC[C@@H](NC(=O)[C@@H](N)Cc1ccc(O)cc1)C(=O)NCC(=O)N[C@@H](Cc1ccc([N+](=O)[O-])cc1)C(=O)N1CCC[C@H]1C(N)=O (some centres undefined) [nifalatide] | inactive: 0.652 | inactive: -0.8 | inactive: 0.0169 |
| 25 | Cc1ncc(OC[C@@]2(c3cccc(F)c3)C[C@H]2C(=O)Nc2ccc(F)cn2)c(C)n1 [Lemborexant] | inactive: -1.8 | inactive: -1.25 | inactive: 3.18 |
| 26 | CN(C(=O)CNC(=O)[C@@H](N)CCCCN)c1ccc(Cl)cc1C(=O)c1ccccc1 | inactive: -1.25 | inactive: 1.14 | inactive: 1.62 |
| 27 | CCC1(CC)C(=O)CCNC1=O | inactive: -0.93 | inactive: -0.915 | inactive: -0.599 |
| 28 | NCCS[As](SCCN)c1ccc(Nc2nc(N)nc(N)n2)cc1 | inactive: -0.435 | inactive: 1.39 | inactive: 1.18 |
| 29 | CCCCNC(=O)n1c(NC(=O)OC)nc2ccccc21 | inactive: -0.0459 | inactive: -0.909 | inactive: -0.354 |
| 30 | CCCN(CCC)C(=O)Cc1c(-c2ccc(Cl)cc2)nc2ccc(Cl)cn12 [alpidem] | inactive: 0.852 | inactive: -2.17 | inactive: 2.87 |
| 31 | CC1COC(O)(c2cc(F)cc(F)c2)C(C)N1 (centres undefined) | inactive: -1.45 | inactive: -1.83 | inactive: 0.66 |
| 32 | Oc1ccc([C@H]2CC[C@]3(CC2)OOC2(O3)C3CC4CC(C3)CC2C4)cc1 (some centres undefined) | inactive: 2.69 | – | inactive: -1.24 |
| 33 | CCCN[C@@H]1Cc2cccc3[nH]c(=O)n(c23)C1 | inactive: 0.141 | inactive: -0.323 | inactive: 0.267 |
| 34 | Cc1cc(C)c(CC2=NCCN2)c(C)c1 | inactive: -1.2 | inactive: -0.292 | inactive: -1.71 |
| 35 | O=C(O)C1CCN1C12CC3CC(CC(C3)C1)C2 (centres undefined) | inactive: 2.48 | inactive: -1.32 | inactive: 4.12 |
| 36 | COc1ccc2c3c1O[C@H]1[C@@H](O)CC[C@H]4[C@@H](C2)N(C)CC[C@@]341 [Dihydrocodeine Bitartrate] | inactive: 1.42 | – | active: 9.99 |
| 37 | CC(=O)NC1CCC(O[N+](=O)[O-])CC1 (centres undefined) | inactive: 1.05 | inactive: 0.658 | inactive: -0.844 |

Going on with the list:

Row | SMILES | TEAD-luciferase reporter activity (compound concentration: 200 nM) | TEAD-luciferase reporter activity (compound concentration: 2 uM) | TEAD-luciferase reporter activity (compound concentration: 10 uM)
41 | CC12C=CC(=O)C=C1CC[C@@H]1[C@@H]2CCC2(C)C(=O)CC[C@@H]12 (some centres undefined) | inactive: -0.358 | – | inactive: -0.186
42 | Cc1nnc2n1-c1sc(C#CCn3c(=O)c4ccccc4c4ccccc43)cc1C(c1ccccc1Cl)=NC2 | inactive: -0.219 | inactive: -0.211 | inactive: -0.489
43 | CNC(=O)Oc1ccccc1C(=O)Nc1ccccc1 | inactive: -0.663 | inactive: -1.57 | inactive: -1.88
44 | c1cncc(C2=N[C@H](CN3CCCCC3)CON2)c1 | inactive: -1.48 | inactive: -0.16 | inactive: -0.635
45 | CC(=O)[C@H]1CC[C@H]2[C@@H]3CC[C@@H]4C[C@H](O)CC[C@]4(C)[C@H]3CC[C@]12C | inactive: -0.264 | inactive: -1.07 | inactive: 0.0688
46 | CC1(C)COC(=O)C1O (centres undefined) | inactive: 0.379 | inactive: 1.1 | inactive: -1.03
47 | CCCCCCC(C)(C)c1cc(O)c2c(c1)OC(C)(C)[C@@H]1CCC(=O)C[C@@H]21 [Nabilone] | inactive: -0.254 | – | inactive: 2.66
48 | CCCCCCC(=O)O[C@H]1CC[C@H]2[C@@H]3CC[C@H]4CC(=O)C=C(C)[C@]4(C)[C@H]3CC[C@]12C | inactive: 0.0288 | inactive: -0.358 | inactive: 4.44
49 | COc1ccccc1N1CCN(CCc2ccc3c(c2)sc(=O)n3C)CC1 | active: 5.48 | inactive: 4.18 | inactive: 1.97
50 | Nc1ncc([N+](=O)[O-])s1 | inactive: 0.704 | inactive: -1.65 | inactive: 0.596
51 | CN1CCC(O)(c2ccc(F)cc2)C(C(=O)c2ccc(F)cc2)C1 (centres undefined) [flazalone] | inactive: -0.809 | inactive: -1.34 | inactive: -1.84
52 | CN(C)CCc1c[nH]c2cccc(OP(=O)(O)O)c12 | inactive: -0.664 | inactive: -0.0994 | inactive: 0.691
53 | CCOC(=O)c1ncn2c1CN(C)C(=O)c1c(I)cccc1-2 | inactive: 2.12 | inactive: 0.0851 | inactive: -0.542
54 | Cc1nn(C)c2c1C(c1cccc(Cl)c1)=NCCN2 [zometapine] | inactive: -1.89 | inactive: -2.25 | inactive: 2.72
55 | CCc1ccc(C2CCNCC2)cc1 [enefexine] | inactive: 0.558 | inactive: 0.536 | inactive: 1.97
56 | CN1Cc2c(-c3noc(C4CC4)n3)ncn2-c2ccccc2C1=O | inactive: -1.48 | inactive: -0.451 | inactive: -1.05
57 | C=CCN1CC[C@]23c4c5ccc(O)c4O[C@H]2C(=O)CC[C@@]3(O)[C@H]1C5 | inactive: -0.704 | – | inactive: 2.79
58 | C=CCN1CC[C@]23c4c5ccc(O)c4O[C@H]2C(=O)CC[C@@]3(O)[C@H]1C5 [naloxone HCl] | – | inactive: -0.863 | –
